Consider five sequences from article PMC4494937.

The target of the data set is T1, RNPC1a (UniProt Q9H0Z9).
T1 sequence (looked up, limits assumed): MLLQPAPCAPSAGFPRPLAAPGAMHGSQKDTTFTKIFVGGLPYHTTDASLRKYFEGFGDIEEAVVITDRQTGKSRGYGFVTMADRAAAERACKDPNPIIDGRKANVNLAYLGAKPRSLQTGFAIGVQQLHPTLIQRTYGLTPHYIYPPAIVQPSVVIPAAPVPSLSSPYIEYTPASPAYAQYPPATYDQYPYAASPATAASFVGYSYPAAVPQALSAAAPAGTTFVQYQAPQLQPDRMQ
The data set can be described thus: EMSA. Particulars: 0.6 and 1.2 ug protein, yeast tRNA; 10 mM HEPES-KOH pH 7.5, 90 mM potassium acetate, 1.5 mM magnesium, 2.5 mM DTT, 40 U RNase inhibitor, 2.5 ug yeast tRNA, 20 ul, 30 C 30 min; 4% agarose gel; recombinant protein; protein details: His; label: none (Gel Red stain); probe letters rebuilt from the primers and the genome. A general note: In EMSA bound probe runs differently from free probe, usually more slowly.

Construct, isoform or probe ends are uncertain for at least one entry. Negatives hold for the conditions tested. Tags and fusion partners may be left off the protein sequences shown.

For “GGGAGCUCUAGCACAAUUAUGGGUUACUUCCUUUUUCUUAACAAAAAAGAAUGUUUGAUUUCCUCUGGGUGACCUUAUUGUCUGUAAUUGAAACCCUAUUGAGAGGUGAUGUCUGUGUUAGCCAAUGACCCAGGUGAGCUGCUCGGGCUUCUCUUGGUAUGUCUUGUUUGGAAAAGUGGAUUUCAUUCAUUUCUGAUUGUCCAGUUAAGUGAUCACCAAAGGACUGAGAAUCUGGGAGGGCAAAAAAAAAAAAAAAGUUUUUAUGUGCACUUAAAUUUGGGGACAAUUUUAUGUAUCUGUGUUAAGGAUAUGUUUAAGAACAUAAUUCUUUUGUUGCUGUUUGUUUAAGAAGCACCUUAGUUUGUUUAAGAAGCACCUUAUAUAGUAUAAUAUAUAUUUUUUUGAAAUUACAUUGCUUGUUUAUCAGACAAUUGAAUGUAGUAAUUCUGUUCUGGAUUUAAUUUGACUGGGUUAACAUGCAAAAACCAAGGAAAAAUAUUUAGUUUUUUUUUUUUUUUUUGUAUACUUUUCAAGCUACCUUGUCAUGUAUACAGUCAUUUAUGCCUAAAGCCUGGUG [ERα 3'UTR probe C]”, the binding result is “no binding”.
As for “GGGAGUGGGUACUGGGAGUGAUCACUAACACCAUAGUAAUGUCUAAUAUUCACAGGCAGAUCUGCUUGGGGAAGCUAGUUAUGUGAAAGGCAAAUAGAGUCAUACAGUAGCUCAAAAGGCAACCAUAAUUCUCUUUGGUGCAGGUCUUGGGAGCGUGAUCUAGAUUACACUGCACCAUUCCCAAGUUAAUCCCCUGAAAACUUACUCUCAACUGGAGCAAAUGAACUUUGGUCCCAAAUAUCCAUCUUUUCAGUAGCGUUAAUUAUGCUCUGUUUCCAACUGCAUUUCCUUUCCAAUUGAAUUAAAGUGUGGCCUCGUUUUUAGUCAUUUAAAAUUGUUUUCUAAGUAAUUGCUGCCUCUAUUAUGGCACUUCAAUUUUGCACUGUCUUUUGAGAUUCAAGAAAAAUUUCUAUUCUUUUUUUUGCAUCCAAUUGUGCCUGAACUUUUAAAAUAUGUAAAUGCUGCCAUGUUCCAAACCCAUCGUCAGUGUGUGUGUUUAGAGCUGUGCACCCUAGAAACAACAUAUUGUCCCAUGAGCAGGUGCCUGAGACACAGACCCCUUUGCAUUCACAGAGAGGUCAUUGGUUAUAGAGACUUGAAUUAAUAAGUGACAUUAUGCCAGUUUCUGUUCUCUCACAGGUGAUAAACAAUGCUUUUUGUGCACUACAUACUCUUCAGUGUAGAGCUCUUGUUUUAUGGGAAAAGGCUCAAAUGCCAAAUUGUGUUUGAUGGAUUAAUAUGCCCUUUUGCCGAUGCAUACUAUUACUGAUGUGACUCGGUUUUGUCGCAGCUUUGCUUUGUUUAAUGAAACACACUUGUAAACCUCUUUUGCACUUUGAAAAAGAAUCCAGCGGGAUGCUCGAGCACCUGUAAACAAUU [ERα 3'UTR probe E]”, the entry is “no binding”.
With “GGGAGGAGCUCCCUGGCUCCCACACGGUUCAGAUAAUCCCUGCUGCAUUUUACCCUCAUCAUGCACCACUUUAGCCAAAUUCUGUCUCCUGCAUACACUCCGGCAUGCAUCCAACACCAAUGGCUUUCUAGAUGAGUGGCCAUUCAUUUGCUUGCUCAGUUCUUAGUGGCACAUCUUCUGUCUUCUGUUGGGAACAGCCAAAGGGAUUCCAAGGCUAAAUCUUUGUAACAGCUCUCUUUCCCCCUUGCUAUGUUACUAAGCGUGAGGAUUCCCGUAGCUCUUCACAGCUGAACUCAGUCUAUGGGUUGGGGCUCAGAUAACUCUGUGCAUUUAAGCUACUUGUAGAGACCCAGGCCUGGAGAGUAGACAUUUUGCCUCUGAUAAGCACUUUUUAAAUGGCUCUAAGAAUAAGCCACAGCAAAGAAUUUAAAGUGGCUCCUUUAAUUGGUGACUUGGAGAAAGCUAGGUCAAGGGUUUAUUAUAGCACCCUCUUGUAUUCCUAUGGCAAUGCAUCCUUUUAUGAAAGUGGUACACCUUAAAGCUUUUAUAUGACUGUAGCAGAGUAUCUGGUGAUUGUCAAUUCAUUCCCCCUAUAGGAAUACAAGGGGCACACAGGGAAGGCAGAUCCCCUAGUUGGCAAGACUAUUUUAACUUGAUACACUGCAGAUUCAGAUGUGCUGAAAGCUCUGCCUCUGGCUUUCCGGUCAUGGGUUCCAGUUAAUUCAUGCCUCCCAUGGACCUAUGGAGAGCAGCAAGUUGAUCUUAGUUAAGUCUCCCUAUAUGAGGGAUAAGUUCCUGAUUUUUGUUUUUAUUUUUGUGUUACAAAAGAAAGCCCUCCCUCCCUGAACUUGCAGUAAGGUCAGCUUCAGGACCUGUUCCAGU [ERα 3'UTR probe A]”, the binding result was “binds”.
Take “GGGAGAUGUGUUUCUAUUCAUGUUAAGAUACUACUACAUUUGAAGUGGGCAGAGAACAUCAGAUGAUUGAAAUGUUCGCCCAGGGGUCUCCAGCAACUUUGGAAAUCUCUUUGUAUUUUUACUUGAAGUGCCACUAAUGGACAGCAGAUAUUUUCUGGCUGAUGUUGGUAUUGGGUGUAGGAACAUGAUUUAAAAAAAAACUCUUGCCUCUGCUUUCCCCCACUCUGAGGCAAGUUAAAAUGUAAAAGAUGUGAUUUAUCUGGGGGGCUCAGGUAUGGUGGGGAAGUGGAUUCAGGAAUCUGGGGAAUGGCAAAUAUAUUAAGAAGAGUAUUGAAAGUAUUUGGAGGAAAAUGGUUAAUUCUGGGUGUGCACCAGGGUUCAGUAGAGUCCACUUCUGCCCUGGAGACCACAAAUCAACUAGCUCCAUUUACAGCCAUUUCUAAAAUGGCAGCUUCAGUUCUAGAGAAGAAAGAACAACAUCAGCAGUAAAGUCCAUGGAAUAGCUAGUGGUCUGUGUUUCUUUUCGCCAUUGCCUAGCUUGCCGUAAUGAUUCUAUAAUGCCAUCAUGCAGCAAUUAUGAGAGGCUAGGUCAUCCAAAGAGAAGACCCUAUCAAUGUAGGUUGCAAAAUCUAACCCCUAAGGAAGUGCAGUCUUUGAUUUGAUUUCCCUAGUAACCUUGCAGAUAUGUUUAACCAAGCCAUAGCCCAUGCCUUUUGAGGGCUGAACAAAUAAGGGACUUACUGAUAAUUUACUUUUGAUCACAUUAAGGUGUUCUCACCUUGAAAUCUUAUACACUGAAAUGGCCAUUGAUUUAGGCCACUGGCUUAGAGUACUCCUUCCCCUGCAUGACACUGAUUACAAAUACUUUCCUAUUCAUACUUUCCAAUUAUGAGAUGGACUGU [ERα 3'UTR probe D]”: the binding result is “binds”.
On to “GGGAGUGGGCACUGUACUUGGAUCUUCCCGGCGUGUGUGUGCCUUACACAGGGGUGAACUGUUCACUGUGGUGAUGCAUGAUGAGGGUAAAUGGUAGUUGAAAGGAGCAGGGGCCCUGGUGUUGCAUUUAGCCCUGGGGCAUGGAGCUGAACAGUACUUGUGCAGGAUUGUUGUGGCUACUAGAGAACAAGAGGGAAAGUAGGGCAGAAACUGGAUACAGUUCUGAGGCACAGCCAGACUUGCUCAGGGUGGCCCUGCCACAGGCUGCAGCUACCUAGGAACAUUCCUUGCAGACCCCGCAUUGCCCUUUGGGGGUGCCCUGGGAUCCCUGGGGUAGUCCAGCUCUUCUUCAUUUCCCAGCGUGGCCCUGGUUGGAAGAAGCAGCUGUCACAGCUGCUGUAGACAGCUGUGUUCCUACAAUUGGCCCAGCACCCUGGGGCACGGGAGAAGGGUGGGGACCGUUGCUGUCACUACUCAGGCUGACUGGGGCCUGGUCAGAUUACGUAUGCCCUUGGUGGUUUAGAGAUAAUCCAAAAUCAGGGUUUGGUUUGGGGAAGAAAAUCCUCCCCCUUCCUCCCCCGCCCCGUUCCCUACCGCCUCCACUCCUGCCAGCUCAUUUCCUUCAAUUUCCUUUGACCUAUAGGCUAAAAAAGAAAGGCUCAUUCCAGCCACAGGGCAGCCUUCCCUGGGCCUUUGCUUCUCUAGCACAAUUAUGGGUUACUUCCUUUUUCUUAACAAAAAAGAAUGUUUGAUUUCCUCUGGGUGA [ERα 3'UTR probe B]”, for which the binding result was “binds”.
